Measured values published in ChEMBL document CHEMBL1157874, “Synthesis, spectroscopic and biological studies on the new symmetric Schiff base derived from 2,6-diformyl-4-methylphenol with N-aminopyrimidine” (2010).
Converted amounts (≈) assume the structure as drawn.

Legend:
Type in all cases: functional
Candida parapsilosis = experiment: Antifungal activity against Candida parapsilosis ATCC 22019 after 18 hrs by broth microdilution assay; conditions: Lodderomyces parapsilosis, ATCC 22019, 18 h
Candida albicans = experiment: Antifungal activity against Candida albicans ATCC 14053 after 18 hrs by broth microdilution assay; conditions: ATCC 14053, 18 h
Staphylococcus aureus [1] = experiment: Antibacterial activity against Staphylococcus aureus ATCC 25923 after 18 hrs by broth microdilution assay; conditions: ATCC 25923, 18 h
Escherichia coli = experiment: Antibacterial activity against Escherichia coli ATCC 4230 after 18 hrs by broth microdilution assay; conditions: ATCC 4230, 18 h
Staphylococcus aureus [2] = experiment: Antibacterial activity against Staphylococcus aureus ATCC 6538 after 18 hrs by broth microdilution assay; conditions: ATCC 6538, 18 h

Structure (SMILES) | MIC (Candida parapsilosis) | MIC (Candida albicans) | MIC (Staphylococcus aureus [1]) | MIC (Escherichia coli) | MIC (Staphylococcus aureus [2])
OC(Cn1cncn1)(Cn1cncn1)c1ccc(F)cc1F [FLUCONAZOLE] | 5 µg/mL (≈ 16.3 µM) | 5 µg/mL (≈ 16.3 µM) |  |  | 
CC1(C)S[C@@H]2[C@H](NC(=O)[C@H](N)c3ccccc3)C(=O)N2[C@H]1C(=O)O [AMPICILLIN] |  |  | 10 µg/mL (≈ 28.6 µM) | 20 µg/mL (≈ 57.2 µM) | 5 µg/mL (≈ 14.3 µM)
